# Results are given in words; binding and its absence hold for the method and conditions named. In cells and extracts the contact can be indirect. These calls come from enrichment with a bait or labelling near it, and not all partners need be listed.
# The chains behind the UniProt entries cited, without tags or fusion partners.
# UniProt P51149: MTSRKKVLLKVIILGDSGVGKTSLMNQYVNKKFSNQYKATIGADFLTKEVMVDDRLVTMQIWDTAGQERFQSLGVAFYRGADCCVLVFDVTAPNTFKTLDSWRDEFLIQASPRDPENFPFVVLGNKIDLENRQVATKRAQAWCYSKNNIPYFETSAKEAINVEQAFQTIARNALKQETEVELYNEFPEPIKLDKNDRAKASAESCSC
# UniProt Q9UI14: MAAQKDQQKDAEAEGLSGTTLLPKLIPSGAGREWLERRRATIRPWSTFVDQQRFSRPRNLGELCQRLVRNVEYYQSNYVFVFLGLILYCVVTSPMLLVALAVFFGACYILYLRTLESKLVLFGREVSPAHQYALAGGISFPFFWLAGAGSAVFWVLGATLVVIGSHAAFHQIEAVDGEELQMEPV
# Target: GFP-RAB7a (human) (UniProt P51149)
# Assay: affinity purification with mass spectrometry; GFP-trap of GFP-RAB7 from SILAC-labelled parental HeLa and VPS35 KO cells, two runs with swapped labels; Tris-HCl pH 7.8, 50 mM NaCl, 0.5% Triton X-100, 1 mM MgCl2; Orbitrap, MaxQuant
row,Molecule,binding
1,PRA-1 (from UniProt Q9UI14 1-185),binds
2,"GDI1 (protein, UniProt P31150 1-447) MDEEYDVIVLGTGLTECILSGIMSVNGKKVLHMDRNPYYGGESSSITPLEELYKRFQLLEGPPESMGRGRDWNVDLIPKFLMANGQLVKMLLYTEVTRYLDFKVVEGSFVYKGGKIYKVPSTETEALASNLMGMFEKRRFRKFLVFVANFDENDPKTFEGVDPQTTSMRDVYRKFDLGQDVIDFTGHALALYRTDDYLDQPCLETVNRIKLYSESLARYGKSPYLYPLYGLGELPQGFARLSAIYGGTYMLNKPVDDIIMENGKVVGVKSEGEVARCKQLICDPSYIPDRVRKAGQVIRIICILSHPIKNTNDANSCQIIIPQNQVNRKSDIYVCMISYAHNVAAQGKYIAIASTTVETTDPEKEVEPALELLEPIDQKFVAISDLYEPIDDGCESQVFCSCSYDATTHFETTCNDIKDIYKRMAGTAFDFENMKRKQNDVFGEAEQ",binds
